# Measurements: the supplement of paper PMC12067093, “Discovery and optimisation of a covalent ligand for TRIM25 and its application to targeted protein ubiquitination” (Chemical Science, 2025)
# The chains behind the UniProt entries cited, without tags or fusion partners. Where a name states a change or a piece, a line headed by the entry shows the natural chain unless it says otherwise.
# UniProt Q9BT23: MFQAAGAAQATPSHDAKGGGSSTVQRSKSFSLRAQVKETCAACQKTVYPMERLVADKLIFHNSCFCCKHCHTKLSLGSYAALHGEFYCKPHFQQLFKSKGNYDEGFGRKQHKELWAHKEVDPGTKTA
# UniProt Q8NF37: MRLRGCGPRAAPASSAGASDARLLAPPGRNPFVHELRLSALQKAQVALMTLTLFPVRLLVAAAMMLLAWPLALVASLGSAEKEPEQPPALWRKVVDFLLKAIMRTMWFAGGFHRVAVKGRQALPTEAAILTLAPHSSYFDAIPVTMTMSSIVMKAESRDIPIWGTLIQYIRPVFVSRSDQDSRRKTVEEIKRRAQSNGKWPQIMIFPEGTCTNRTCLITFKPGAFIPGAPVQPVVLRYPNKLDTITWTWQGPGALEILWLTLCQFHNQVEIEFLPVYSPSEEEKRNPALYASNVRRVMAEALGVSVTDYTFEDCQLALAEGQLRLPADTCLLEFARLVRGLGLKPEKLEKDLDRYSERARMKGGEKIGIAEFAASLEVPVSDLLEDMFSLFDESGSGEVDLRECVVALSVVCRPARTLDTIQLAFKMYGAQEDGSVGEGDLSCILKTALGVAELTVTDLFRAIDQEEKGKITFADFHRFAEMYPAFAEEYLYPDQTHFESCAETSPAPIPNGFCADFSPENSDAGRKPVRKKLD
# UniProt Q32MZ4: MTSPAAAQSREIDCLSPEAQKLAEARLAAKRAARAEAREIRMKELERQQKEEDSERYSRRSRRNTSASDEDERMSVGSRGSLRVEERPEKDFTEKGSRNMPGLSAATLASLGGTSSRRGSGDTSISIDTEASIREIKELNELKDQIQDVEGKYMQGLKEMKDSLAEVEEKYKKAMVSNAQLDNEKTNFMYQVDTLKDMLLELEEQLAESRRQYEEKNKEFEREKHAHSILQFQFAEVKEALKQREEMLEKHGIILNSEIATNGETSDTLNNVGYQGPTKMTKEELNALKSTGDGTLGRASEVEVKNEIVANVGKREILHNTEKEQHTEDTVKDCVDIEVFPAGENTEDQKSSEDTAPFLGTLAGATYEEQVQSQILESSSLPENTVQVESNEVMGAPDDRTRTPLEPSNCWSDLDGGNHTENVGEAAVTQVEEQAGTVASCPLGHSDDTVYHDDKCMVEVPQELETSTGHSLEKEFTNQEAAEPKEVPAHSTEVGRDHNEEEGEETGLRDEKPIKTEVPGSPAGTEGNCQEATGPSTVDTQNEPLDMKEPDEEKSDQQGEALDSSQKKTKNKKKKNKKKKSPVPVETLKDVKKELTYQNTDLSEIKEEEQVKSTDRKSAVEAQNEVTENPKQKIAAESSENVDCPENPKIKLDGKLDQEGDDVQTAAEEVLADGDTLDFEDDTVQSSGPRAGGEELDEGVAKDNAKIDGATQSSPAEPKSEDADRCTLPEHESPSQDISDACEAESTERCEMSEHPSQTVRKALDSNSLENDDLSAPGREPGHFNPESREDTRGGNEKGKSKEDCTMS
# UniProt Q8N9N7: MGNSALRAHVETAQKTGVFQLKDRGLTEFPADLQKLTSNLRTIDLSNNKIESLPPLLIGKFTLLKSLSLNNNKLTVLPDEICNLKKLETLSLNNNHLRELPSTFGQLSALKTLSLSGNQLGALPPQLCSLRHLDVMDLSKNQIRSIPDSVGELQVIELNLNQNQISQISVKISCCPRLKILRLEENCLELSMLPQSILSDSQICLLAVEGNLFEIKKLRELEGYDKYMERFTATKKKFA
# UniProt Q6UWE0: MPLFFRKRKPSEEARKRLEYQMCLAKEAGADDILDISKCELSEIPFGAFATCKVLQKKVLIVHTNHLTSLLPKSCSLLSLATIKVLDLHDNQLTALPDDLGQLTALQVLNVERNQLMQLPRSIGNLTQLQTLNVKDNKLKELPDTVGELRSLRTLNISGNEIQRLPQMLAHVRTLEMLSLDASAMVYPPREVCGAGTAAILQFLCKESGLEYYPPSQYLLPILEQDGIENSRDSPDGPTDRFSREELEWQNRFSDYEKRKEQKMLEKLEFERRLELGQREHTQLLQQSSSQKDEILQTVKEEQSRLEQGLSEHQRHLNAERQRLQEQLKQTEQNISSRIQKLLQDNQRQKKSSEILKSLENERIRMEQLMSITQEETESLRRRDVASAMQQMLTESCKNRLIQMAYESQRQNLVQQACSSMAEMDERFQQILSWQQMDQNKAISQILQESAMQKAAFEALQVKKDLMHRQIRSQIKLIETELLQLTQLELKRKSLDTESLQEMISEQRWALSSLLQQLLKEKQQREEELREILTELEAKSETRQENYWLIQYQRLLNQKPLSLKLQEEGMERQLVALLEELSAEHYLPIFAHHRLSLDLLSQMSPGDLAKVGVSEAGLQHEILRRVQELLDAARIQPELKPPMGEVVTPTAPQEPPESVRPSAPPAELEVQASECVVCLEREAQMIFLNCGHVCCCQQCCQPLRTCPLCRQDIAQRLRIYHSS
# UniProt Q6P1M3: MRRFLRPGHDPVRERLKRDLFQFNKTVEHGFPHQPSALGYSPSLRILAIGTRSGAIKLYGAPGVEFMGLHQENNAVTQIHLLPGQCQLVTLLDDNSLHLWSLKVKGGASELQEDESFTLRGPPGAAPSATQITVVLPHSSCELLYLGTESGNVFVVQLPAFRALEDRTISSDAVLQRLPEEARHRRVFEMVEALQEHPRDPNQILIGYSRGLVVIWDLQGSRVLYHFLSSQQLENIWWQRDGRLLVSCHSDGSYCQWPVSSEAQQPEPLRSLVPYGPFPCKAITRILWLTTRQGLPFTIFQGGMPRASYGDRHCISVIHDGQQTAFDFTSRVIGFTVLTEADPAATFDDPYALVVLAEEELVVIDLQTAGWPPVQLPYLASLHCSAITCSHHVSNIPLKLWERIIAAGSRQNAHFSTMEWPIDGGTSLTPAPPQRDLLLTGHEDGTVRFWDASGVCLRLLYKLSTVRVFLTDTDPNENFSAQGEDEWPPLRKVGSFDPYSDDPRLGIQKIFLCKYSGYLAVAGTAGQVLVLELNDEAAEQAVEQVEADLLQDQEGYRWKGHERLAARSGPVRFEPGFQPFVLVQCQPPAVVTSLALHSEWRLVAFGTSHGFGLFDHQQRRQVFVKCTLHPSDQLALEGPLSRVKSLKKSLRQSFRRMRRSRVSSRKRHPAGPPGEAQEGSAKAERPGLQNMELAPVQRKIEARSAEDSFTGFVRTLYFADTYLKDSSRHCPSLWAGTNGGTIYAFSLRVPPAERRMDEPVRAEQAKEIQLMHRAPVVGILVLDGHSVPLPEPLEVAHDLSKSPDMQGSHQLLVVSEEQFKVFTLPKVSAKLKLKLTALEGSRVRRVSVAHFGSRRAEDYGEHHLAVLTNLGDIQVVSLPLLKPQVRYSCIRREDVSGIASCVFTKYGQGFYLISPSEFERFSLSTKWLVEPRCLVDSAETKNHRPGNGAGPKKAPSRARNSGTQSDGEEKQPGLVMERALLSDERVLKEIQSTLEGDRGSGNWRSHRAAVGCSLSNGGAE
# UniProt Q93052: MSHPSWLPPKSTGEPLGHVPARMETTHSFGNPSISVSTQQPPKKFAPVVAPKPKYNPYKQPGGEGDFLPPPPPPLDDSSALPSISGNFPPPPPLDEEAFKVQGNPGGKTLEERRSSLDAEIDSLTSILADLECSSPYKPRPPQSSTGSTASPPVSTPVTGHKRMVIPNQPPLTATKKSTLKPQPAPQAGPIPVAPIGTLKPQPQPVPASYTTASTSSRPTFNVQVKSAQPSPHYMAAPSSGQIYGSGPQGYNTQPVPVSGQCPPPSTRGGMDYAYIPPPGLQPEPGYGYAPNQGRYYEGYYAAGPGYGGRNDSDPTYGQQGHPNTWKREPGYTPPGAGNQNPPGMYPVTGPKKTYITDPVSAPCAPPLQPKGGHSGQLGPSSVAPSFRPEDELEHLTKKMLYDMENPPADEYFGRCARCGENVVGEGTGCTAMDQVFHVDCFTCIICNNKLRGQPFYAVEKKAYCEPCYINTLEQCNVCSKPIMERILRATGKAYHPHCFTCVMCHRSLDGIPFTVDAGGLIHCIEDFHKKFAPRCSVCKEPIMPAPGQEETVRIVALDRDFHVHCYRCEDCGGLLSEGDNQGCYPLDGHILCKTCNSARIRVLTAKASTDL
# UniProt P20700: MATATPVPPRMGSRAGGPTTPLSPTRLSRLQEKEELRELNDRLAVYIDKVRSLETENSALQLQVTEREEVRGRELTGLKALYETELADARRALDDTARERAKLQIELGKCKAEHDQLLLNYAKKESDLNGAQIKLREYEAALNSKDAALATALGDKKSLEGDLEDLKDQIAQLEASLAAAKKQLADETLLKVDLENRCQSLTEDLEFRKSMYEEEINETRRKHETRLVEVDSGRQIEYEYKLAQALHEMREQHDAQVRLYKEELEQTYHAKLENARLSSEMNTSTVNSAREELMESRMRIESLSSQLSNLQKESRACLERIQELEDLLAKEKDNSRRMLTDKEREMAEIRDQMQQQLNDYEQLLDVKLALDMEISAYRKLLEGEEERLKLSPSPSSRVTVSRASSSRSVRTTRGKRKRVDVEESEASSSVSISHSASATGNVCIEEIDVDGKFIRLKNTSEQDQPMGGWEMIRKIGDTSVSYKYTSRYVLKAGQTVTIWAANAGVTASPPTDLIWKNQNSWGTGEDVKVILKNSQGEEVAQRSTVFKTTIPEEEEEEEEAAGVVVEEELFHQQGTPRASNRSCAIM
# UniProt P49916: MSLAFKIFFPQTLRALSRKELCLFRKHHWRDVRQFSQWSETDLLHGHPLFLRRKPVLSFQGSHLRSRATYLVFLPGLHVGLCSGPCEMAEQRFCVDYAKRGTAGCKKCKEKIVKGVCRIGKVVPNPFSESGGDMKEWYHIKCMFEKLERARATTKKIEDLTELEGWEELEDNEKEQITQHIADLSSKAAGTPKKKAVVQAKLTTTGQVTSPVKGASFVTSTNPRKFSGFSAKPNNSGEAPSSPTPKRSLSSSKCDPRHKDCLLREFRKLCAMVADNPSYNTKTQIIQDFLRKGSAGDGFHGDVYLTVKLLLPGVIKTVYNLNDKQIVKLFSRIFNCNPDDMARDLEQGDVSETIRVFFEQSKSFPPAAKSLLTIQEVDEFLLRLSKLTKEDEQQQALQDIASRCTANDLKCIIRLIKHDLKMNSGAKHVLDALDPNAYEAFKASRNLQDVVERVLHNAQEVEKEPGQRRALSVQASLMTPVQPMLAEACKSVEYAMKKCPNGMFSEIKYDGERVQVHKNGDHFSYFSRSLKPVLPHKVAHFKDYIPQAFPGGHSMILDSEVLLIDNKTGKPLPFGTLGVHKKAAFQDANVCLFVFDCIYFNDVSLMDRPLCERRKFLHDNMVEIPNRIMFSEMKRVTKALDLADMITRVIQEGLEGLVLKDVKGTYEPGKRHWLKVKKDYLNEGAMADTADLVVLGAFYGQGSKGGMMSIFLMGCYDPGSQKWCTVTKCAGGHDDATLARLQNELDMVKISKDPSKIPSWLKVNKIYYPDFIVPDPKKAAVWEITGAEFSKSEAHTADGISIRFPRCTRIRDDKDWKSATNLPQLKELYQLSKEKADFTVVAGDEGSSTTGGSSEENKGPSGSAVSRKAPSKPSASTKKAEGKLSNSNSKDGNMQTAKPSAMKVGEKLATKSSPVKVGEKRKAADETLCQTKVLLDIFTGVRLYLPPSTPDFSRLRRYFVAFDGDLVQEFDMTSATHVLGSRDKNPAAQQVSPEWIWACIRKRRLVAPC
# UniProt P09960: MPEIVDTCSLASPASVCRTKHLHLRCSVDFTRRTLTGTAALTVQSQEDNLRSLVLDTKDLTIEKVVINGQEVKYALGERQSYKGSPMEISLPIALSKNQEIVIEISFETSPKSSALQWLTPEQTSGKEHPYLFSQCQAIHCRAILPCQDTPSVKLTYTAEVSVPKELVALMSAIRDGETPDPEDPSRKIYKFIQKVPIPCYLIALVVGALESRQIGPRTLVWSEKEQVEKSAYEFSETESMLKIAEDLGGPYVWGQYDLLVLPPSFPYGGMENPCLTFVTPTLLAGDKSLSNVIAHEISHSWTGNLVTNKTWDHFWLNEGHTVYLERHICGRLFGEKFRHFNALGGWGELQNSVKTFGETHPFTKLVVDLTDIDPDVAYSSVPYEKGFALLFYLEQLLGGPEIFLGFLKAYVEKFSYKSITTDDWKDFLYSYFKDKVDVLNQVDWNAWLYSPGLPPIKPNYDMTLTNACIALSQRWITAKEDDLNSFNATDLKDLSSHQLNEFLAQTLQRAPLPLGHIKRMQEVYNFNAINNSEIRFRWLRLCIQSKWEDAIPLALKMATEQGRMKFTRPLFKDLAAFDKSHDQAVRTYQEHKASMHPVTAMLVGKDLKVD
# UniProt P48059, whole entry, looked up: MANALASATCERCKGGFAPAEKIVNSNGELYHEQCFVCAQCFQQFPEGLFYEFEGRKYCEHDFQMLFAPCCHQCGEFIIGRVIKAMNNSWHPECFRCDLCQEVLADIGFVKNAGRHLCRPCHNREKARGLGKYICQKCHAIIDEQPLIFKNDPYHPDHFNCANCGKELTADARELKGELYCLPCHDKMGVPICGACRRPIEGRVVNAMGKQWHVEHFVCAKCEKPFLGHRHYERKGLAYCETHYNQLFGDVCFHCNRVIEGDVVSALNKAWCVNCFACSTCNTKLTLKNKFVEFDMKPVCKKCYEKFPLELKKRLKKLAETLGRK
# The list shows a part of the results.
# Compound: Cc1cc(ccc1-c1ccccc1)C(=O)N1CCCN(CC1)C(=O)CCl [compound 10]
# Test: probe-labelled cysteine peptide fold change vs DMSO (competition) (log2 fold change); higher = less target engagement (more negative = stronger competition)
# Conditions: THP-1, incubation time: 4 h
# 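Further: competitive profiling in live THP-1 cells: cysteine peptides tagged with an iodoacetamide desthiobiotin (IA-DTB) probe, intensity after compound treatment relative to DMSO-treated cells.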
Target,probe-labelled cysteine peptide fold change (10 µM),probe-labelled cysteine peptide fold change (50 µM)
LIMD2_Q9BT23_43_ETCAACQK (UniProt Q9BT23),0.117,-0.234
LPCAT1_Q8NF37_216_TCLITFKPGAFIPGAPVQPVVLR (UniProt Q8NF37),0.0803,0.0258
LRRFIP1_Q32MZ4_750_CEMSEHPSQTVR (UniProt Q32MZ4),-0.371,-0.453
LRCH4_O75427_224_IPVSFCR (UniProt O75427),0.0929,0.0728
LRRC57_Q8N9N7_82_LTVLPDEICNLK (UniProt Q8N9N7),-0.0865,0.0875
LSM4_Q9Y4Z0_32_NGETYNGHLVSCDNWMNINLR (UniProt Q9Y4Z0),-0.0366,-0.127
LRSAM1_Q6UWE0_193_EVCGAGTAAILQFLCK (UniProt Q6UWE0),0.0137,0.149
LLGL2_Q6P1M3_280_SLVPYGPFPCK (UniProt Q6P1M3),-0.15,0.0502
LRPPRC_P42704_863_IHDVLCK (UniProt P42704),0.0747,0.0539
LPP_Q93052_524_SLDGIPFTVDAGGLIHCIEDFHKK (UniProt Q93052),-0.0384,-0.452
LPXN_O60711_178+181_VIHALGQSWHPEHFVCTHCK (UniProt O60711),0.117,-0.151
LPCAT1_Q8NF37_443_MYGAQEDGSVGEGDLSCILK (UniProt Q8NF37),-0.0185,0.179
LIN37_Q96GY3_56_DCSIAATGK (UniProt Q96GY3),-0.144,-0.424
LRRC8A_Q8IWT6_57_MICLPCK (UniProt Q8IWT6),0.0504,0.00851
LMNB1_P20700_198_CQSLTEDLEFR (UniProt P20700),0.000703,0.468
LIMD1_Q9UGP4_401_LSPTSLVHPVMSTLPELSCK (UniProt Q9UGP4),-0.0884,-0.436
LPP_Q93052_566_IVALDRDFHVHCYR (UniProt Q93052),-0.0149,-0.255
LRRC8C_Q8TDW0_774_GNHFEILPPELGDCR (UniProt Q8TDW0),0.0341,0.337

Target,probe-labelled cysteine peptide fold change (10 µM),probe-labelled cysteine peptide fold change (50 µM)
LRRFIP1_Q32MZ4_456_CMVEVPQELETSTGHSLEK (UniProt Q32MZ4),-0.167,-0.23
LRP1_Q07954_3021_GGDPHSCK (UniProt Q07954),-0.193,-0.308
LSM12_Q3MHD2_43_CPSSSGKPNHADILLINLQYVSEVEIINDRTETPPPLASLNVSK (UniProt Q3MHD2),0.046,0.0881
LIG3_P49916_929_KAADETLCQTK (UniProt P49916),-0.152,-1.24
LTA4H_P09960_147_AILPCQDTPSVK (UniProt P09960),-0.0505,-0.143
LIMS1_P48059_193+196_MGVPICGACR (UniProt P48059),0.00512,-0.193
LILRB4_Q8NHJ6_330_SSPAADVQGENFCAAVK (UniProt Q8NHJ6),-0.385,-0.214
LRR1_Q96L50_220_KLPATIGDLIHLQELNLNDNHLESFSVALCHSTLQK (UniProt Q96L50),0.2,-0.439
LGALSL_Q3ZCW2_130_VEILCEHPR (UniProt Q3ZCW2),0.305,0.368
LRRC14_Q15048_221_NTVALLQLLDAGCLR (UniProt Q15048),0.0115,-0.0233
LENG8_Q96PV6_723_LYCHAPCMSGYLVDK (UniProt Q96PV6),-0.296,0.126
LRRC59_Q96AG4_277_VTELQQQPLCTSVNTIYDNAVQGLR (UniProt Q96AG4),-0.306,0.0875
LGALS9_O00182_259_FHINLCSGNHIAFHLNPR (UniProt O00182),-0.14,-0.00102
LRRFIP1_Q32MZ4_334_DCVDIEVFPAGENTEDQK (UniProt Q32MZ4),-0.00127,-0.00403
LRBA_P50851_2820_QLFAYPGCDAGIR (UniProt P50851),-0.136,0.347
LETM1_O95202_330_LFEDELTLDNLTRPQLVALCK (UniProt O95202),0.44,0.881
LRSAM1_Q6UWE0_193+205_EVCGAGTAAILQFLCK (UniProt Q6UWE0),0.19,0.231
